Literature values, collected in US12054482B2 (CHIA TAI TIANQING PHARMACEUTICAL GROUP CO., LTD., priority 2018, dated 2024).
At least one compound was matched to its structure with a doubt left.

System: TLR8
Conditions: concentration for half maximal agonistic effect; data cited from Table 1 of WO2016141092; read-out: AC50 in agonizing TLR8 to induce the production of IL-12p40; cited from earlier work

| SMILES | AC50 |
| --- | --- |
| CCCC[C@](C)(CNC(C)=O)Nc1nc(N)nc2cccnc12 | 0.02 µM |
| CCCC[C@@H](Nc1nc(N)nc2cccnc12)c1ncc[nH]1 [formula 2] | 21.5 µM |
| CCCC[C@@H](Nc1nc(N)nc2cccnc12)c1nnc[nH]1 [formula 3] | 3.4 µM |
